Assay results: the M2OR odorant receptor database
This is a selection; strong and weak results do not stand in their true shares. Calls are pooled over several reports, among them a noisy single-well screen.
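Further: active if original authors judged signal statistically different from baseline.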

Each molecule was assayed against T1, Or5p80 (Mus musculus) (UniProt Q8VG42). Conditions: stereoisomer not certain.
T1 sequence (whole entry): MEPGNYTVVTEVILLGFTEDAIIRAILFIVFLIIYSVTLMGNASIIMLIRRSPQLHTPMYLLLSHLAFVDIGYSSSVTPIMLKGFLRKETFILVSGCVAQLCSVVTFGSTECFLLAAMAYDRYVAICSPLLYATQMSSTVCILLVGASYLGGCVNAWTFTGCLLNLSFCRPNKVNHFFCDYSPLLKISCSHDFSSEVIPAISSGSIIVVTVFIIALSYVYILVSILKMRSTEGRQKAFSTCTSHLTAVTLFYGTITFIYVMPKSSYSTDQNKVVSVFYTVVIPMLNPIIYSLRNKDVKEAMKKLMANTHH
Method in brief: (§1)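 Each receptor–molecule pair is labelled responsive or non-responsive (inactive) according to whether the original authors judged the measured signal statistically different from baseline. The data were taken from the main text and supplementary material of published papers and checked for typos and inconsistencies. Assay methods differed by source, with transient luciferase assays in mammalian cell lines being common.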
In the case of `CC(=O)c1ccccc1`, the “odorant receptor agonist call” value is reported as “inactive”.
With `CCCCCCCC=O` the “odorant receptor agonist call” value was “inactive”.
With `CCCCCC(C)=O` the “odorant receptor agonist call” value was “inactive”.
With `CC12CCC(C1)C(C)(C)C2=O` (configuration not stated) the “odorant receptor agonist call” value was “inactive”.
For `C=C(C)C1CC=C(C)C(=O)C1` (configuration not stated), the “odorant receptor agonist call” value was “active”.
In the case of `CCCCCC(=O)O`, the “odorant receptor agonist call” value is reported as “inactive”.
With `CCCCCCCCC=O` the “odorant receptor agonist call” value was “inactive”.
For `CCCCCCC=O`, the “odorant receptor agonist call” value was “inactive”.
In the case of `CC(C)(O)CCCC1=CCC(C=O)CC1` (configuration not stated), the “odorant receptor agonist call” value is reported as “inactive”.
In the case of `CCCCCCCCCC=O`, the “odorant receptor agonist call” value is reported as “inactive”.
In the case of `O=C1CCCCC1`, the “odorant receptor agonist call” value is reported as “inactive”.

The molecules below were run against T2, Or7a40 (Mus musculus) (UniProt Q9JHB2). Conditions: stereoisomer not certain.
T2 sequence (whole entry): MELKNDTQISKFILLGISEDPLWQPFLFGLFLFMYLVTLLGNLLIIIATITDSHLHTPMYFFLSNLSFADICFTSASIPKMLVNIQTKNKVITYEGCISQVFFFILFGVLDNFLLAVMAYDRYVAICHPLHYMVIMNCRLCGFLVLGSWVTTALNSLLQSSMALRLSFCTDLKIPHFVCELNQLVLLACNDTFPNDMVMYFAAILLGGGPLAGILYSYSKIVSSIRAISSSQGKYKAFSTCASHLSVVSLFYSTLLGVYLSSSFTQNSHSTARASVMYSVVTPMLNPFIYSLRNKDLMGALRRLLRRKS
Method in brief: as §1
For `CC(=O)c1ccccc1`, the “odorant receptor agonist call” value was “inactive”.
`CCCCCCCC=O` was tested, and the “odorant receptor agonist call” value was “inactive”.
In the case of `CCCCCC(C)=O`, the “odorant receptor agonist call” value is reported as “inactive”.
With `CC12CCC(C1)C(C)(C)C2=O` (configuration not stated) the “odorant receptor agonist call” value was “inactive”.
In the case of `C=C(C)C1CC=C(C)C(=O)C1` (configuration not stated), the “odorant receptor agonist call” value is reported as “inactive”.
With `CCCCCC(=O)O` the “odorant receptor agonist call” value was “inactive”.
In the case of `CCCCCCCCC=O`, the “odorant receptor agonist call” value is reported as “inactive”.
For `CCCCCCC=O`, the “odorant receptor agonist call” value was “inactive”.
`CC(C)(O)CCCC1=CCC(C=O)CC1` (configuration not stated) was tested, and the “odorant receptor agonist call” value was “inactive”.
In the case of `CCCCCCCCCC=O`, the “odorant receptor agonist call” value is reported as “inactive”.
In the case of `O=C1CCCCC1`, the “odorant receptor agonist call” value is reported as “inactive”.
